Assay: peptide made by a vendor (Fmoc solid-phase peptide synthesis)
Conditions: whole synthesis

Ac-KQFTKAELSQLLKDIDGYGGIALPELIATMFHTSGYDTQ-OH
purity (crude or final not stated): >95%
